{
  "sequences": {"note": "Protein sequences, listed by entry. Tags and fused reporters are not part of them. Lines headed by an entry give the natural chain unless they say otherwise; changes in a name come on top.", "UniProt Q15008": "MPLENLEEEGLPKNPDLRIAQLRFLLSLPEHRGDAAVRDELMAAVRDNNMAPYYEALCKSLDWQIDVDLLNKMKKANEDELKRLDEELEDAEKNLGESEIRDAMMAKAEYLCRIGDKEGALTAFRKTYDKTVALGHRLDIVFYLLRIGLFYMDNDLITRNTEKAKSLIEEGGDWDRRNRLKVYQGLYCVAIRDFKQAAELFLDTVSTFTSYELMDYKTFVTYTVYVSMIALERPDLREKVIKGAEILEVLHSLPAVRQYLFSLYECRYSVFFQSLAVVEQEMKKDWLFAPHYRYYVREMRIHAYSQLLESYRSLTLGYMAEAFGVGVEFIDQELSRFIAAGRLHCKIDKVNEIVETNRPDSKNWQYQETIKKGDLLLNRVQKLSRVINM", "UniProt Q06323": "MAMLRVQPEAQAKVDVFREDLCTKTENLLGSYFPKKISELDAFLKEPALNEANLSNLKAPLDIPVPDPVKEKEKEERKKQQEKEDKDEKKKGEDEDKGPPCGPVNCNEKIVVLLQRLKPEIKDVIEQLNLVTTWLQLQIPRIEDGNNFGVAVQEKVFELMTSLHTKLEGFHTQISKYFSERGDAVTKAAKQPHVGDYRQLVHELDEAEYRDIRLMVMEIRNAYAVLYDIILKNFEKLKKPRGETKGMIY", "UniProt Q9HD47": "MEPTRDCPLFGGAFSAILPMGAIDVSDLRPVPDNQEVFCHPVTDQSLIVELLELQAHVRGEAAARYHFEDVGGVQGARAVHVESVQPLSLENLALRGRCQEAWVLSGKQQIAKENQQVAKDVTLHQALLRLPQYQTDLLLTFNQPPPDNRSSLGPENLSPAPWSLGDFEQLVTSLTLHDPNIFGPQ", "UniProt P54725": "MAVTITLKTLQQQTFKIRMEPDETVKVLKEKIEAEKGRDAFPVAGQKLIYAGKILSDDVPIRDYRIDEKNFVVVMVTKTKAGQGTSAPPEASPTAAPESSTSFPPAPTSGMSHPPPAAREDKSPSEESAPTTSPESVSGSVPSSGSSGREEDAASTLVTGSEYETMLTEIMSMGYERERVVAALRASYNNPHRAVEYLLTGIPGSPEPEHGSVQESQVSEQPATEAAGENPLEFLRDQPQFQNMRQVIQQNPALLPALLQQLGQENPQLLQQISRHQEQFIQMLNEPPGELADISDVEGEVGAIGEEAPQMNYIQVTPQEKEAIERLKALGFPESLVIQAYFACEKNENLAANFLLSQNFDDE", "UniProt Q2TAL8": "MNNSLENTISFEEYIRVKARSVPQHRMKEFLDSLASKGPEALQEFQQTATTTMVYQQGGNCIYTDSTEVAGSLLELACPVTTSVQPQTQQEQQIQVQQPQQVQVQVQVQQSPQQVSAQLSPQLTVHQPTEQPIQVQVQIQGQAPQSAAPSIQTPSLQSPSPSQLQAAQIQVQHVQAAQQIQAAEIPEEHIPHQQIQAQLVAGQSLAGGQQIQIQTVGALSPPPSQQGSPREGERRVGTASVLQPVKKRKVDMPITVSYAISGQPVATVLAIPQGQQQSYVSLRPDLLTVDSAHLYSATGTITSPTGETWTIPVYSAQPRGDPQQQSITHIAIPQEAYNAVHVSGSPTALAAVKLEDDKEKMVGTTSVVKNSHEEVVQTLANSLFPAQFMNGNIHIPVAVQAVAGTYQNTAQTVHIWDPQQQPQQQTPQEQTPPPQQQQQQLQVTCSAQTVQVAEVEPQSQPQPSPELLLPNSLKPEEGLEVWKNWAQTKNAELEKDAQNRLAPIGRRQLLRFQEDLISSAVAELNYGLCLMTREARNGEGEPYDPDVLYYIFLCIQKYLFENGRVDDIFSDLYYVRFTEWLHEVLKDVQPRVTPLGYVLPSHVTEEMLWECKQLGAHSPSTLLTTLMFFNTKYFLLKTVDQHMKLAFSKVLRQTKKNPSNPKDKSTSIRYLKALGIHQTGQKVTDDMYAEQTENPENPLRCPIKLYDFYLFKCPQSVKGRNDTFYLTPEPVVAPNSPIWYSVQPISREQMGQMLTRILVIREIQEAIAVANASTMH", "UniProt Q9NWB1": "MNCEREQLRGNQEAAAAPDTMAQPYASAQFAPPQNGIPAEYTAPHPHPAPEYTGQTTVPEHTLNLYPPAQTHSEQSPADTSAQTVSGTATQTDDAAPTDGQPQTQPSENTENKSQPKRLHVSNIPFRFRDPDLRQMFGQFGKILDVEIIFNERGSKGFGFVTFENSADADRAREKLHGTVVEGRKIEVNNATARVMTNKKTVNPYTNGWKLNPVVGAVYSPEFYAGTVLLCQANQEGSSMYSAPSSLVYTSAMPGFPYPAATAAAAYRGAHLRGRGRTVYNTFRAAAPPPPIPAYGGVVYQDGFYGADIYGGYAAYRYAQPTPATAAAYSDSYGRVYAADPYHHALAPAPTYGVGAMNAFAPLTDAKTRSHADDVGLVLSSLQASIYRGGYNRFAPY", "UniProt Q14289, whole entry, looked up": "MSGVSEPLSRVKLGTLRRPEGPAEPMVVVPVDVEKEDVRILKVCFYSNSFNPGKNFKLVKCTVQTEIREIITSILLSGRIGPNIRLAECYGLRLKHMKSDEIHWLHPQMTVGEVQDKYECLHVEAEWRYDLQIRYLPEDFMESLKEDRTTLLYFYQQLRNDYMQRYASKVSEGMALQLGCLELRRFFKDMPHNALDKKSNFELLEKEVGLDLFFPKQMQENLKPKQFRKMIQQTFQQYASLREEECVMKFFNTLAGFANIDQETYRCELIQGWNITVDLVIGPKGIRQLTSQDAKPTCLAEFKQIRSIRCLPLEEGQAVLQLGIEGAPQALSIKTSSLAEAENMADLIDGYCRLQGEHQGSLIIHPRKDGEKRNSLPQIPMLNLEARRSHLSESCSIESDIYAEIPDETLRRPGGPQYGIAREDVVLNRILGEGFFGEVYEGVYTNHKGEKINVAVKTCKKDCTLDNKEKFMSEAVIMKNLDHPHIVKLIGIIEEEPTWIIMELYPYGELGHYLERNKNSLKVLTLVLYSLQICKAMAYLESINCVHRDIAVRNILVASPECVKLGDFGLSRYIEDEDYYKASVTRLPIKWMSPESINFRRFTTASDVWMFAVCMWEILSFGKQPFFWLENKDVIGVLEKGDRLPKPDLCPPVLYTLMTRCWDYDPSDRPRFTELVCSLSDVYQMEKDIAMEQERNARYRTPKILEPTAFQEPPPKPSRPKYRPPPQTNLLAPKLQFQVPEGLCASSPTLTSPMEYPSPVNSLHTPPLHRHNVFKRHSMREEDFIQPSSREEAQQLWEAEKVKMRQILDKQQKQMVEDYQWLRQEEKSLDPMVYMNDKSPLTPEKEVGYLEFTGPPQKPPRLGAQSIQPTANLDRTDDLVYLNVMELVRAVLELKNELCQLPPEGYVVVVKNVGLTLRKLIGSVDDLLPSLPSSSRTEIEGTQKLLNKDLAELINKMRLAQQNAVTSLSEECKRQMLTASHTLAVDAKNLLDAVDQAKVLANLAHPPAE", "UniProt P25788": "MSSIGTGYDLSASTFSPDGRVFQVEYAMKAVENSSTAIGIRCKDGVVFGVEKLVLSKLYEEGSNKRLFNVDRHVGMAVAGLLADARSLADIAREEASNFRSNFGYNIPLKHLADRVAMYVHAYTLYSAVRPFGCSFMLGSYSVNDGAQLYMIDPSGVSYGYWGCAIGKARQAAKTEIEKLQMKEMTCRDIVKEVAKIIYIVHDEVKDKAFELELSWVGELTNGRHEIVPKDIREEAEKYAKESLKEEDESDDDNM"},
  "source": "the supplement of paper PMC7666118",
  "note": "The list shows a part of the results.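 How the source made its calls: active = dose-dependent thermal stabilisation significant by F-test of dose-response against flat model at 10% FDR; inactive = not significant.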",
  "data": [
    {"compound": "Nc1nc2c(ncn2[C@@H]2O[C@H](COP(=O)(O)OP(=O)(O)OP(=O)(O)O)[C@@H](O)[C@H]2O)c(=O)[nH]1", "assay": "dose-dependent thermal stabilisation call (2D-TPP, DLPTP, 10% FDR) (binary (1 = stabilised)); higher = stabilised by the compound", "details": "system: Jurkat gel-filtered lysate; concentration range 1-500 µM", "values": [
      {"target": "PSMD6 (UniProt Q15008)", "dose-dependent thermal stabilisation call": "inactive: 0"},
      {"target": "PSME1 (UniProt Q06323)", "dose-dependent thermal stabilisation call": "inactive: 0"},
      {"target": "RANGRF (UniProt Q9HD47)", "dose-dependent thermal stabilisation call": "inactive: 0"},
      {"target": "RAD23A (UniProt P54725)", "dose-dependent thermal stabilisation call": "inactive: 0"},
      {"target": "QRICH1 (UniProt Q2TAL8)", "dose-dependent thermal stabilisation call": "inactive: 0"},
      {"target": "RBFOX1 (UniProt Q9NWB1)", "dose-dependent thermal stabilisation call": "inactive: 0"},
      {"target": "PTK2B (UniProt Q14289)", "dose-dependent thermal stabilisation call": "inactive: 0"},
      {"target": "PSMA3 (UniProt P25788)", "dose-dependent thermal stabilisation call": "inactive: 0"}
    ]}
  ]
}
